36 compounds from PubChem BioAssay AID1487 (National Center for Advancing Translational Sciences (NCATS), 2009) can be followed below.

The other results are listed elsewhere or left out. The main result of the screen is listed elsewhere. These columns were measured beside it and carry no call. Compounds called inactive in the main read-out are mostly missing here. The note in brackets gives the kind of curve behind each potency; many fits are weak.

Usually AC50 stands for the midpoint of the concentration-response curve, whichever way the signal moves.

The nature of this experiment: qHTS Assay for Modulators of Lamin A Splicing. Particulars: HeLa LMNA splicing GFP/RFP minigene ratio, 48 h. Put shortly: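 S3 HeLa stable clones carrying a lamin A-EGFP splicing minigene plus DsRed2 were seeded at 600 cells/well in Opti-MEM with 2% FBS, pin-dosed and incubated 48 h at 37°C. Acumen cytometry (488 nm) gave the GFP/RFP total-intensity ratio.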
Background: qHTS replaces the single test concentration by a dilution series.

Setting [1] is: measured here: GFP splicing reporter channel.
Where [2] appears, read: measured here: RFP viability control channel.

`O=S(=O)(c1ccc(Br)cc1)N1CCCN(Cc2cccc(F)c2)CC1`: the AC50 under setting [1] was 14.1 µM [rising, single point].

Regarding `CCN(c1ccc(OCC(=O)OCC(=O)c2c(N)n(C)c(=O)n(C)c2=O)cc1)S(=O)(=O)c1ccccc1`, the AC50 under setting [2] was 11.2 µM [rising, partial curve, poor fit].

As for `CCCCSc1nnc(-c2ccc(C)cc2)c2ccccc12`, the concentration at half-maximal activity (AC50) under setting [2] is 14.1 µM [rising, partial curve, poor fit].

In the case of `COCCN(Cc1cc2cc3c(cc2nc1Cl)OCO3)C(=O)Nc1ccc(F)cc1`, the concentration at half-maximal activity (AC50) under setting [2] is 10 µM [rising, partial curve].

On to `COc1ccc(-c2cn3c(n2)sc2cc(C(=O)Nc4cccc(SC)c4)ccc23)cc1`, for which the AC50 under setting [1] was 0.0891 µM [falling, full curve].

`COc1ccc2c(C=Nc3c(C)n(C)n(-c4ccccc4)c3=O)c(O)n(Cc3ccco3)c(=O)c2c1`: the AC50 under setting [2] is 7.94 µM [rising, partial curve].

Take `COCCn1c(C)cc(C(=O)COC(=O)c2c(C)nn(Cc3ccccc3)c2C)c1C`: the AC50 under setting [2] is 35.5 µM [rising, single point].

For the compound `COc1ccc(NC(=O)NCCN2CCN(c3cccc(Cl)c3)CC2)cc1`, under setting [2], the AC50 is 35.5 µM [rising, partial curve].

`O=c1[nH][nH]cc1C=Nc1ccc(Cl)cc1Cl`: under setting [2], the concentration at half-maximal activity (AC50) was 0.00282 µM [falling, full curve].

For `O=S(=O)(NCCC1=CCCCC1)c1cccc(S(=O)(=O)N2CCOCC2)c1`, the concentration at half-maximal activity (AC50) under setting [2] was 22.4 µM [rising, single point].

For `Cc1ccc(NC(=O)c2cc(N3C(=O)C=CC3=O)ccc2N2CCOCC2)cc1`, the AC50 runs as follows: under setting [1], 12.6 µM [falling, partial curve]; under setting [2], 10 µM [falling, partial curve].

Regarding `NS(=O)(=O)c1cc2c(cc1C(F)(F)F)N[C@H](Cc1ccccc1)NS2(=O)=O`, under setting [2], the AC50 is 14.1 µM [rising, single point].

With `CCCNC(=O)Cn1c(=O)/c(=C\c2ccc(-c3ccc([N+](=O)[O-])cc3)o2)s/c1=C\C(=O)C(C)(C)C`, the AC50 reads like this: under setting [1], 0.398 µM [falling, full curve, poor fit]; under setting [2], 0.398 µM [falling, full curve, poor fit].

Regarding `CCCSc1nc2cc(C)c(C)cc2n1CC(C)O` (stereo not drawn), the AC50 under setting [1] was 1.26 µM [falling, full curve, poor fit].

Regarding `O=C(NCc1ccco1)c1cc([N+](=O)[O-])ccc1Cl`, under setting [1], the AC50 is 1.58 µM [rising, partial curve].

`O=c1[nH]cnc2c1c(-c1ccccc1)cn2-c1ccc(Br)cc1`: under setting [2], the AC50 was 35.5 µM [rising, single point].

In the case of `CCOc1ccc(CC2c3cc(OCC)c(OCC)cc3CCN2C(=O)c2cc(OC)c(OC)c(OC)c2)cc1OCC` (stereo not drawn), the AC50 runs as follows: under setting [1], 14.1 µM [rising, single point]; under setting [2], 22.4 µM [rising, single point].

Regarding `COC(=O)c1sccc1NC(=S)N1CCN(c2cc(C)ccc2C)CC1`, the AC50 is 15.8 µM [rising, single point] under setting [1] and 35.5 µM [rising, single point] under setting [2].

Turning to `Cc1ccc(NC(=O)Cn2c(=O)ccc3cc(S(=O)(=O)N4CCC(C)CC4)ccc32)c(C)c1`, the half-maximal activity concentration (AC50) was 35.5 µM [falling, single point] under setting [1] and 35.5 µM [falling, single point] under setting [2].

Regarding `COCCCNC(=O)C1CCC(CNS(=O)(=O)c2ccc(OC)cc2)CC1` (stereo not drawn), under setting [2], the concentration at half-maximal activity (AC50) was 0.178 µM [falling, full curve].

For the compound `CCNC(=S)NN=C1c2ccccc2-c2ccccc21`, the half-maximal activity concentration (AC50) is 17.8 µM [falling, partial curve] under setting [1] and 2.82 µM [falling, single point] under setting [2].

Turning to `Cc1cc(C(=O)COC(=O)c2ccccc2O)c(C)n1Cc1cccs1`, under setting [2], the concentration at half-maximal activity (AC50) is 31.6 µM [rising, single point].

For `COc1cc(NC(=O)COC(=O)/C=C/c2ccc(Cl)cc2Cl)cc(OC)c1`, the AC50 under setting [1] is 35.5 µM [rising, single point].

`CC(C)c1nc2oc3c(NCC4CCCO4)ncnc3c2c2c1CCC2` (stereo not drawn): the AC50 under setting [2] is 10 µM [rising, single point].

With `COc1cccc(CNC(=O)C2CCN(Cc3cc4ccccc4n3Cc3ccc(C)cc3)CC2)c1`, under setting [2], the AC50 is 7.94 µM [falling, partial curve].

For the compound `COc1ccc(CN=C2Nc3ccccc3CS2)cc1`, the half-maximal activity concentration (AC50) reads like this: under setting [1], 14.1 µM [rising, single point]; under setting [2], 35.5 µM [rising, single point].

`COc1ccc(-c2c(-c3ccc(O)cc3O)n[nH]c2C)cc1OC`: the AC50 under setting [2] was 31.6 µM [rising, single point].

Take `CCN(CC)S(=O)(=O)c1cc(C(=O)OCC(=O)c2ccc3c(c2)NC(=O)CO3)ccc1F`: the AC50 is, setting by setting: under setting [1], 10 µM [rising, partial curve]; under setting [2], 20 µM [rising, partial curve].

Regarding `O=C(OCn1ncc(Cl)c(Cl)c1=O)c1ccc(C(F)(F)F)cc1`, the half-maximal activity concentration (AC50) under setting [1] is 35.5 µM [falling, single point] and the AC50 under setting [2] was 22.4 µM [falling, single point].

On to `COc1cnc(SCc2ccc(Cl)c(Cl)c2)nc1Cl`, for which the AC50 under setting [1] is 15.8 µM [falling, single point] and the concentration at half-maximal activity (AC50) under setting [2] is 17.8 µM [falling, single point].

In the case of `O=C(c1c[nH]c2ccccc2c1=O)N1CCCCCC1`, the half-maximal activity concentration (AC50) under setting [1] was 0.02 µM [rising, full curve, poor fit].

Take `O=[N+]([O-])c1ccc2nc(-c3ccccc3)n(OCc3ccc(Cl)cc3)c2c1`: the AC50 under setting [2] was 11.2 µM [falling, partial curve].

On to `Cc1cnccc1CN(C)Cc1cn(C)nc1-c1cccc(Cl)c1`, for which the AC50 was 14.1 µM [falling, single point] under setting [1] and 35.5 µM [falling, single point] under setting [2].

On to `Cc1nc2ccc(NC(=O)COc3ccccc3C)cc2s1`, for which the half-maximal activity concentration (AC50) under setting [1] was 35.5 µM [falling, single point] and the concentration at half-maximal activity (AC50) under setting [2] is 1.12 µM [falling, partial curve, poor fit].

Consider `O=C(c1ccc(F)cc1)C1CCN(C(=O)NC2CCCCC2)CC1`, for which the AC50 under setting [1] is 0.0398 µM [rising, full curve, poor fit].

On to `O=c1c2ccccc2nnn1CSc1nc2sc3c(c2c(=O)n1CC1CCCO1)CCC3` (stereo not drawn), for which the AC50 under setting [1] was 11.2 µM [rising, single point].
